Reference: US20180172668A1, “ENGINEERED MODEL OF FIBROTIC DISEASES” (Colorado State University Research Foundation, priority 2015, published 2018)
At least one structure is not confirmed: it was looked up by name or label, or the drawing left a doubt.

Experiments:
[1] = system: MPTCs; test: MPTC transporter function (CDCFDA stain); conditions: 12 days of treatment
[2] = system: MPTCs; test: MPTC lipid accumulation (Nile red staining); conditions: 12 days of treatment

`CC[C@H]1[C@@H](O)[C@@H]2[C@H](CC[C@]3(C)[C@@H]([C@H](C)CCC(=O)O)CC[C@@H]23)[C@@]2(C)CC[C@@H](O)C[C@@H]12` [obeticholic acid] was tested, and the transporter function [1] was “improved” and the lipid accumulation [2] was “improved”.
